No constants are given. Whether binding was seen depends on the method and setting. Some results given as binding are weak or reduced against the parent protein; the word gives no strength.

Sequences of proteins named here, by UniProt entry; tags and fusion partners are left off. A change or cut given only in a name is not applied to a line headed by its entry. Residues count along the entry.
UniProt Q9NPB9: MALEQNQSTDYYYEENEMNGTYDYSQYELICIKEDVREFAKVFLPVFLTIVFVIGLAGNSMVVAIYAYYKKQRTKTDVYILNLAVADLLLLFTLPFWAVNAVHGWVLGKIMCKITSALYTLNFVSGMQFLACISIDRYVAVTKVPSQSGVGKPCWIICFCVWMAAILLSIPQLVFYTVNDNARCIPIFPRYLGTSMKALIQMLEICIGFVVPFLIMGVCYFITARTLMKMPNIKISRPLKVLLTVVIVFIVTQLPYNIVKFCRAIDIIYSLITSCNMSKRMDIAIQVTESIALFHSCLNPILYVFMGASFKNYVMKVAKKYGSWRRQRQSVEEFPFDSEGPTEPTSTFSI
UniProt P84444, residues 24-133: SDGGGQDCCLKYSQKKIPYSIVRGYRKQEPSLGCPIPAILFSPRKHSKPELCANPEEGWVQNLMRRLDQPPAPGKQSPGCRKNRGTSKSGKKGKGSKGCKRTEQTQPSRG

In assay [1] the target is human CCX CKR with N-terminal Flag epitope, stably expressed on HEK293 cells (human) (UniProt Q9NPB9). Briefly: displacement of 125I-ELC or 125I-TECK from CCX CKR transfectants, 200 nM cold chemokine. (In general: In a radioligand displacement assay an active substance lowers the binding of a labelled ligand.)
Assay [2] has the same target. Briefly: radioligand binding competition on CCX CKR stable transfectants.

As for “murine SLC (from UniProt P84444 24-133) (ligand)”, the binding result in assay [1] and in assay [2] was “binds” each time.
